Data taken from article PMC11844276.
Results are given in words; binding and its absence hold for the method and conditions named. Binding seen in cells or lysates may run through a third protein. Some binding calls cover weakened binding; strength is not graded here.

Protein sequences, listed by entry. Tags and fused reporters are not part of them.
UniProt Q9JHS3: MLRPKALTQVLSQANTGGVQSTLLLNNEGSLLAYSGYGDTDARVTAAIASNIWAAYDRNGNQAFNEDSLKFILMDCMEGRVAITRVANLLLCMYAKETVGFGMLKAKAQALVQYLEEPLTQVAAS
UniProt Q8K019: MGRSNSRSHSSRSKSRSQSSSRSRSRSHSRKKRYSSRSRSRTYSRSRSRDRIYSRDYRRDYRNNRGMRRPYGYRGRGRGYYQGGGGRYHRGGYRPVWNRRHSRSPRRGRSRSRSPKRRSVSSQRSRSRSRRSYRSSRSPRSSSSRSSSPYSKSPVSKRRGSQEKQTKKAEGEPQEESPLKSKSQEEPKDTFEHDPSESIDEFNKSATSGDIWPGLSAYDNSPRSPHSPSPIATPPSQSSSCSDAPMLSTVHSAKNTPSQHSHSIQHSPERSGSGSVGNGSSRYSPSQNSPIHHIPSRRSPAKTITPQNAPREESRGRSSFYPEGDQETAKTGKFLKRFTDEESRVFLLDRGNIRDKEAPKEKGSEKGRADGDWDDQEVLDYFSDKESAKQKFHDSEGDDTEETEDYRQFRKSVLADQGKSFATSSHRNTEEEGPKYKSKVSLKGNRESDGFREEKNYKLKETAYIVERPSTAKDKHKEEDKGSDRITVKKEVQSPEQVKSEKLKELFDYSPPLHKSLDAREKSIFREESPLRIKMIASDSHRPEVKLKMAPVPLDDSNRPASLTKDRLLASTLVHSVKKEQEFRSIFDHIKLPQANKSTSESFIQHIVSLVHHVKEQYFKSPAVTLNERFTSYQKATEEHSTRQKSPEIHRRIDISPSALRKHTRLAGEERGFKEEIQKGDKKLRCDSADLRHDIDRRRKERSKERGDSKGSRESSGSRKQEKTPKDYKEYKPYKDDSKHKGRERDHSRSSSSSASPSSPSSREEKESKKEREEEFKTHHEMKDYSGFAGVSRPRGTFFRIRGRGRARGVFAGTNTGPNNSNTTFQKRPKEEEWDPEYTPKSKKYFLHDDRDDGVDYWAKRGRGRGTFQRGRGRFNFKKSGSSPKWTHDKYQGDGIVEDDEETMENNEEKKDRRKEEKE

What was measured:
[1] = biological target: Ragulator complex protein LAMTOR2, Flag-tagged (UniProt Q9JHS3); assay: condition: only chondrocytes treated with IL-1β (5 ng/mL) for 48 h; co-IP; as a2, but chondrocytes treated with IL-1β (5 ng/mL) for 48 h before lysis
[2] = biological target: Ragulator complex protein LAMTOR2, Flag-tagged (UniProt Q9JHS3); assay: co-IP; mouse primary chondrocytes transfected with Bclaf1-Flag or Lamtor2-Flag plasmid, without IL-1β; NP-40 lysate; protein A/G magnetic beads with the indicated antibodies, overnight at 4 °C, 4 washes; western blotting
[3] = biological target: B-cell lymphoma-2-associated transcription factor 1 (BCLAF1), Flag-tagged (UniProt Q8K019); assay: condition: only chondrocytes treated with IL-1β (5 ng/mL) for 48 h; co-IP; as a2, but chondrocytes treated with IL-1β (5 ng/mL) for 48 h before lysis
[4] = biological target: B-cell lymphoma-2-associated transcription factor 1 (BCLAF1), Flag-tagged (UniProt Q8K019); assay: co-IP; mouse primary chondrocytes transfected with Bclaf1-Flag or Lamtor2-Flag plasmid, without IL-1β; NP-40 lysate; protein A/G magnetic beads with the indicated antibodies, overnight at 4 °C, 4 washes; western blotting

| binding [1] | binding [2] | binding [3] | binding [4] | Substance |
| --- | --- | --- | --- | --- |
| no binding | binds | – | – | B-cell lymphoma-2-associated transcription factor 1 (BCLAF1), endogenous (from UniProt Q8K019 1-919) |
| – | – | no binding | binds | Ragulator complex protein LAMTOR2 (late endosomal/lysosomal adaptor and MAPK and MTOR activator 2), endogenous (from UniProt Q9JHS3 1-125) |
